Measurements published in the supplement of paper PMC12282887.

Tested on: Escherichia coli BW25113
Assay: growth (OD600 area under curve, 8 h) (OD600 x h); higher = more growth
Description: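 E. coli BW25113 reporter strains (wild type, ΔmarA, ΔsoxS, Δrob, each carrying one of 8 lux reporter plasmids) were grown in 40 µl LB in 384-well plates at 37°C, 800 rpm, with each compound at 4 two-fold concentrations, in biological duplicates. Growth is the baseline-corrected OD600 area under the curve over 8 h (0-8 h WT, 1-9 h deletion strains).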

COc1ccc2cc3[n+](cc2c1OC)CCc1cc2c(cc1-3)OCO2 [Berberine]
growth
Settings | reporter plasmid: EVC | reporter plasmid: acrABp | reporter plasmid: marRABp | reporter plasmid: micFp | reporter plasmid: ompFp | reporter plasmid: robp | reporter plasmid: soxSp | reporter plasmid: tolCp
21 µg/ml, genetic background: wild type | 2.82 ± 0.074 | 2.84 ± 0.12 | 3.14 ± 0.13 | 3.22 ± 0.31 | 2.961 ± 0.022 | 3.25 ± 0.21 | 3.07 ± 0.034 | 2.94 ± 0.2
21 µg/ml, genetic background: ΔmarA | 2.81 ± 0.32 | 3.61 ± 0.58 | 3.12 ± 0.13 | 3.2 ± 0.88 | 3.2 ± 1 | 3.01 ± 0.49 | 2.53 ± 0.58 | 2.66 ± 0.32
21 µg/ml, genetic background: Δrob | 2.58 ± 1.1 | 2.81 ± 0.09 | 3 ± 0.057 | 3.05 ± 0.14 | 2.43 ± 0.63 | 2.308 ± 0.012 | 2.79 ± 0.46 | 3.04 ± 0.21
21 µg/ml, genetic background: ΔsoxS | 3.01 ± 0.25 | 3.11 ± 0.38 | 3.05 ± 0.82 | 2.77 ± 0.12 | 2.84 ± 0.11 | 2.87 ± 0.29 | 3.14 ± 0.29 | 2.96 ± 0.23
42 µg/ml, genetic background: wild type | 2.64 ± 0.095 | 2.87 ± 0.34 | 3.15 ± 0.19 | 3.05 ± 0.14 | 2.95 ± 0.17 | 3.123 ± 0.015 | 2.92 ± 0.11 | 2.869 ± 0.0054
42 µg/ml, genetic background: ΔmarA | 2.71 ± 0.28 | 3.71 ± 0.36 | 3.077 ± 0.019 | 3.02 ± 0.78 | 3.2 ± 0.95 | 3.09 ± 0.45 | 2.54 ± 0.7 | 2.52 ± 0.16
42 µg/ml, genetic background: Δrob | 2.54 ± 0.85 | 3 ± 0.12 | 3.12 ± 0.15 | 2.95 ± 0.03 | 2.22 ± 0.58 | 2.31 ± 0.18 | 2.66 ± 0.14 | 2.95 ± 0.27
42 µg/ml, genetic background: ΔsoxS | 3.0233 ± 0.0012 | 2.93 ± 0.55 | 2.96 ± 0.8 | 2.38 ± 0.19 | 2.71 ± 0.27 | 3.12 ± 0.19 | 3.08 ± 0.22 | 2.9 ± 0.21
84.1 µg/ml, genetic background: wild type | 2.44 ± 0.15 | 2.85 ± 0.4 | 3.04 ± 0.43 | 2.78 ± 0.25 | 2.87 ± 0.33 | 3.0165 ± 0.0027 | 2.76 ± 0.041 | 2.85 ± 0.13
84.1 µg/ml, genetic background: ΔmarA | 2.71 ± 0.28 | 3.86 ± 0.59 | 3.29 ± 0.17 | 2.94 ± 0.75 | 3.31 ± 0.75 | 3.3 ± 0.5 | 2.42 ± 0.76 | 2.63 ± 0.059
84.1 µg/ml, genetic background: Δrob | 2.49 ± 0.79 | 2.85 ± 0.085 | 3.21 ± 0.15 | 2.76 ± 0.21 | 2.31 ± 0.53 | 2.39 ± 0.22 | 2.57 ± 0.18 | 2.73 ± 0.36
84.1 µg/ml, genetic background: ΔsoxS | 2.81 ± 0.32 | 2.76 ± 0.79 | 3.05 ± 0.77 | 2.45 ± 0.033 | 2.63 ± 0.64 | 2.96 ± 0.067 | 2.84 ± 0.55 | 2.51 ± 0.18
168.2 µg/ml, genetic background: wild type | 2.57 ± 0.16 | 2.82 ± 0.47 | 3.11 ± 0.32 | 2.823 ± 0.025 | 2.73 ± 0.37 | 2.9 ± 0.054 | 2.72 ± 0.041 | 2.71 ± 0.13
168.2 µg/ml, genetic background: ΔmarA | 2.6 ± 0.25 | 3.75 ± 0.57 | 3.02 ± 0.29 | 2.62 ± 0.54 | 3.03 ± 0.82 | 3.03 ± 0.21 | 2.07 ± 0.55 | 2.29 ± 0.23
168.2 µg/ml, genetic background: Δrob | 2.47 ± 0.63 | 2.63 ± 0.12 | 3.07 ± 0.074 | 2.7 ± 0.11 | 2.17 ± 0.59 | 2.12 ± 0.22 | 2.48 ± 0.19 | 2.47 ± 0.28
168.2 µg/ml, genetic background: ΔsoxS | 2.62 ± 0.57 | 2.75 ± 0.73 | 2.87 ± 0.66 | 1.72 ± 0.13 | 2.35 ± 0.63 | 2.84 ± 0.1 | 2.79 ± 0.13 | 2.535 ± 0.025

± gives the standard deviation of the averaged measurements. Values are raw readings; no control value is given beside them.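 Maximum concentrations were near the MIC for antimicrobials, 500 µM for most other compounds, and as high as 1 mM for known inducer-like compounds. Deletion strains began with a tenfold smaller inoculum, and wells with growth under 10% of the overall median counted as non-growing.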
